In PubChem BioAssay AID493014 (National Center for Advancing Translational Sciences (NCATS), 2011) one finds AC50 data, which are given here for 40 compounds.

This is one part of the list. These are further read-outs of the screen, such as a control signal, another cell line or another target. No call is given for them. Compounds called inactive in the main read-out are mostly missing here. The note in brackets gives the kind of curve behind each potency; many fits are weak.

The test in a line: qHTS Assay to Find Inhibitors of Chronic Active B-Cell Receptor Signaling. The conditions noted are these: ABC-DLBCL IkBa-CBG/CBR reporter, luminescence ratio (green luciferase fused to IkBa over red control in TMD8 lymphoma cells), 4 h. The essentials: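 Doxycycline induced both beetle luciferases in TMD8 lymphoma cells; IKK-driven degradation limits the IkappaBalpha-fused green signal, while red luminescence normalises for cell number and nonspecific effects. Compounds tested up to 46 uM, 4 hrs.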

The mark [1] stands for this setting: measured here: CBR red luminescence, cell number.
Where [2] appears, read: measured here: IkBa-CBG green luminescence.

On to `CC1CCN(C(=O)c2cc(-c3ccccc3O)on2)CC1`, for which, under setting [1], the AC50 was 0.2 µM [rising, full curve, poor fit].
Regarding `Cc1ccc2oc(=O)n(CCC(=O)Nc3ccc(N4CCOCC4)cc3)c2c1`, the AC50 under setting [1] is 3.98 µM [rising, partial curve, poor fit].
As to `O=C(Nc1ccccc1C(=O)N1CCOCC1)c1cccc(S(=O)(=O)N2CCCC2)c1`, the AC50 under setting [2] is 29.1 µM [rising, single point].
As for `Cc1csc(NC(=O)c2ccc(Br)s2)n1`, the AC50 under setting [1] is 10 µM [falling, partial curve, poor fit].
On the same count and under the same terms, then `COc1ccc(-c2cc(N3C(=O)Nc4ccccc4N3O)n[nH]2)cc1`, with 1.46 µM [falling, full curve, poor fit].
Consider `Cc1c([N+](=O)[O-])c(C(=O)Sc2ccc(Br)cc2)nn1C`, for which the concentration at half-maximal activity (AC50) is, setting by setting: under setting [1], 35.5 µM [rising, single point]; under setting [2], 35.5 µM [falling, single point].
For `O=C(NCc1ccc2c(c1)OCO2)C(=O)Nc1ccccc1`, the AC50 under setting [1] is 17.8 µM [falling, partial curve, poor fit].
`Cc1nn(Cc2ccc(Cl)cc2Cl)c(C)c1NC(=O)CCl`: the AC50 under setting [1] was 5.8 µM [falling, full curve].
As to `Cc1cc(C(=O)OCC(=O)Nc2cccc(S(=O)(=O)N(C)C)c2)c(C)o1`, under setting [1], the AC50 was 11.2 µM [falling, partial curve, poor fit].
On to `COc1ccccc1/C=C/C=N/NC(=O)CCC1C(=O)NN=C1C` (configuration not stated), for which, under setting [1], the AC50 is 9.2 µM [falling, partial curve].
For the compound `COc1ccc(C(=O)NC(=S)Nc2ccccc2N2CCOCC2)cc1Br`, the AC50 under setting [1] was 2.06 µM [rising, partial curve, poor fit].
On to `O=C(Nc1ccccc1N1CCN(C(=O)c2ccccc2)CC1)c1cccc(Cl)c1`, for which the AC50 under setting [1] was 0.708 µM [rising, partial curve, poor fit].
As to `Cc1c(C)n(C)c2ccc([N+](=O)[O-])cc12`, the half-maximal activity concentration (AC50) under setting [1] was 31.6 µM [rising, single point].
With `Clc1ccc(-c2nc(C3CCCCC3)no2)cc1`, under setting [1], the AC50 was 3.98 µM [rising, partial curve, poor fit].
In the case of `Cn1cccc1Cc1nnc(SCC(=O)Nc2ccc3c(c2)OCCO3)n1-c1ccc(F)cc1`, the AC50 under setting [1] is 23.1 µM [falling, single point].
In the case of `O=C(CSCc1ccc(F)cc1)N1CCN(c2ccccc2F)CC1`, under setting [1], the AC50 is 17.8 µM [rising, single point].
Same read-out and setting: then `O=C(/C=C1\SC(=O)N(CC(=O)Nc2ccc(F)cc2)C1=O)Nc1ccc(Cl)cc1`, with 1.46 µM [falling, partial curve]; and `COc1ccc(OC)c(C=NNC(=O)c2ccc(NS(=O)(=O)c3cccs3)cc2)c1`, with 9.2 µM [falling, partial curve, poor fit].
As to `CCOc1ccccc1N1CCN(Cc2cccc(OC)c2O)CC1`, under setting [1], the AC50 was 1.64 µM [rising, partial curve, poor fit].
Take `C=CCN=C1SCC(=O)N1S(=O)(=O)c1ccc(C)cc1`: the AC50 was 2.91 µM [falling, single point] under setting [1] and 5.17 µM [rising, partial curve, poor fit] under setting [2].
On to `CN(C)S(=O)(=O)c1cccc(-c2nnc(SCC(=O)NCCCCCC(=O)O)n2-c2ccc(F)cc2)c1`, for which the AC50 under setting [1] was 2.82 µM [rising, partial curve, poor fit].
For `CCC1(c2ccc(Cl)cc2)NC(=O)N(CC(=O)NCc2ccc(F)cc2)C1=O` (configuration not stated), under setting [1], the AC50 was 35.5 µM [falling, partial curve, poor fit].
As for `Cc1ccc(-n2c(-c3cnccn3)n[nH]c2=S)cc1`, under setting [1], the AC50 is 3.55 µM [rising, partial curve, poor fit].
As to `Cc1cc(OCCCCOc2ccc(C#N)cc2)ccc1[N+](=O)[O-]`, the concentration at half-maximal activity (AC50) under setting [1] is 2.51 µM [rising, partial curve, poor fit].
Turning to `Cc1cccc(N2CCN(C(=S)NCCc3ccccc3)CC2)c1C`, under setting [1], the AC50 was 29.1 µM [rising, single point].
Regarding `C=CCn1c2ccccc2c(=O)c2cc(C#Cc3ccccn3)ccc21`, the half-maximal activity concentration (AC50) under setting [1] was 23.1 µM [falling, single point].
For `COc1cccc(NC(=O)CSc2nc3ccccc3nc2N2CCCC2)c1`, the half-maximal activity concentration (AC50) under setting [1] was 0.708 µM [falling, full curve, poor fit].
On to `COC(=O)C1=C(C)Nc2[nH]c(=S)[nH]c(=O)c2C1c1ccc(O)cc1` (configuration not stated), for which the concentration at half-maximal activity (AC50) under setting [1] is 35.5 µM [rising, single point].
In the case of `CC(C)c1ccc(/C=N/n2c(-c3ccccc3)n[nH]c2=S)cc1`, under setting [1], the AC50 is 22.4 µM [rising, single point].
Still for that read-out and setting: then `COc1ccc2nc3c(c(-c4ccccc4)c2c1)CCC3`, with 23.1 µM [rising, partial curve, poor fit].
Same read-out and setting: with `CSc1ccc(CN(C)C(=O)c2cccc(S(=O)(=O)NCc3ccccc3)c2)cc1` the figure was 3.16 µM [falling, single point]; with `O=C(COc1ccc2c3c(c(=O)oc2c1)CCC3)NCCCN1CCCC1=O`, 11.2 µM [rising, single point].
As for `COc1cccc(-c2nnc(SCc3ccc(C#N)cc3)n2Cc2ccco2)c1`, the concentration at half-maximal activity (AC50) under setting [1] was 22.4 µM [falling, partial curve, poor fit].
In the case of `COc1cc(/C=C2\C(=O)N(CCC#N)N=C2C)ccc1OCC(=O)Nc1ccccc1`, the AC50 under setting [1] is 14.6 µM [falling, partial curve].
Still for that read-out and setting: with `CC1CCCN(CCCNC(=O)c2cc(Sc3ccc(F)cc3)nc3ccccc23)C1` (configuration not stated) the figure was 15.8 µM [falling, single point]; with `COc1ccc(C(=O)NCCc2ccc(S(N)(=O)=O)cc2)cc1OC`, 23.1 µM [rising, single point]; with `O=C1c2ccccc2C(=O)N1CCc1csc(-c2ccccc2)n1`, 2.06 µM [rising, full curve].
As for `CCN(CC)C(=O)c1ccc2c(=O)n(CCOC)c(=S)[nH]c2c1`, the AC50 under setting [1] was 0.058 µM [falling, full curve, poor fit].
For `Cc1cc(NC(=O)/C=C/c2ccc(Br)cc2)no1`, under setting [1], the AC50 is 2.31 µM [rising, partial curve].
Turning to `Cc1cc(C)cc(C(=O)Nc2cccc(NC(=O)c3ccco3)c2)c1`, under setting [1], the AC50 was 2.24 µM [falling, full curve, poor fit].
